PubChem BioAssay AID652243 | Drosophila RNAi Screening Center | 2013
The deposit covers about 24,000 reagents; shown is a random part of those with a known target gene and a result. Of all reagents, 246 (1%) were called active. 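Plates not normalised; calls are printed but the firefly/Renilla ratio behind them is not deposited; fold cut for lowering reported inconsistently.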 Raw values are not corrected between plates. The numbers tell different reagents against one gene apart. Not stated in the record: the amount of reagent.

- Test: 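Fly genes required for human androgen receptor driven transcription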 (primary screen)
- System: Drosophila S2R+ cells
- Knock-down reagent: long dsRNA against Drosophila genes
- Time to read-out: 72 h (48 h, then 24 h hormone)
- Conditions: synthetic androgen R1881 at 10 nM for 24 h
- Read-out: 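Firefly light from an androgen-responsive reporter and Renilla control light per well, raw and unnormalised, for each of two replicates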
- Direction: firefly reporter light: higher = more light from androgen-responsive reporter; Renilla control light: higher = more constitutive control signal (cell number, transfection)
- Active means: 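Hit when the log firefly-to-Renilla ratio dropped or increased by a fixed fold versus the mean of GFP or LacZ controls across duplicate plates; lowering cut given as 1.5 and as 3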
- Calls: active = hit: reporter lowered or raised; inactive = no hit

Against CG42327 #1 the deposit lists firefly reporter light, replicate 1 = 1.10e5; firefly reporter light, replicate 2 = 89219; Renilla control light, replicate 1 = 1.46e6; Renilla control light, replicate 2 = 1.72e6; inactive.
CG42327 #2 scored firefly reporter light, replicate 1 = 1.22e5; firefly reporter light, replicate 2 = 1.22e5; Renilla control light, replicate 1 = 2.03e6; Renilla control light, replicate 2 = 1.58e6; inactive.
CG42327 #3 scored firefly reporter light, replicate 1 = 6.35e5; firefly reporter light, replicate 2 = 5.68e5; Renilla control light, replicate 1 = 4.53e5; Renilla control light, replicate 2 = 4.27e5; inactive.
With knock-down of CG42327 #4, the screen gave firefly reporter light, replicate 1 = 5.88e5; firefly reporter light, replicate 2 = 3.69e5; Renilla control light, replicate 1 = 1.28e6; Renilla control light, replicate 2 = 1.09e6; inactive.
With knock-down of CG42327 #5 the results were firefly reporter light, replicate 1 = 3.74e5; firefly reporter light, replicate 2 = 8.64e5; Renilla control light, replicate 1 = 1.23e6; Renilla control light, replicate 2 = 1.74e6; inactive.
Against Rack1 #1 the deposit lists firefly reporter light, replicate 1 = 2.10e5; firefly reporter light, replicate 2 = 2.31e5; Renilla control light, replicate 1 = 2.41e6; Renilla control light, replicate 2 = 1.88e6; inactive.
After knock-down of Rack1 #2, the record shows firefly reporter light, replicate 1 = 6.11e5; firefly reporter light, replicate 2 = 4.29e5; Renilla control light, replicate 1 = 7.01e5; Renilla control light, replicate 2 = 6.91e5; inactive.
lap #1 scored firefly reporter light, replicate 1 = 1.31e5; firefly reporter light, replicate 2 = 99823; Renilla control light, replicate 1 = 4.80e5; Renilla control light, replicate 2 = 4.84e5; inactive.
lap #2 gave firefly reporter light, replicate 1 = 8.57e5; firefly reporter light, replicate 2 = 1.40e6; Renilla control light, replicate 1 = 1.45e6; Renilla control light, replicate 2 = 1.76e6; inactive.
Against CG5339, the values are firefly reporter light, replicate 1 = 4.36e5; firefly reporter light, replicate 2 = 5.86e5; Renilla control light, replicate 1 = 7.42e5; Renilla control light, replicate 2 = 9.79e5; inactive.
Knock-down of CG11902 #1 gave: firefly reporter light, replicate 1 = 4.95e5; firefly reporter light, replicate 2 = 7.17e5; Renilla control light, replicate 1 = 1.83e6; Renilla control light, replicate 2 = 2.25e6; inactive.
Knock-down of CG11902 #2 came out at: firefly reporter light, replicate 1 = 3.60e5; firefly reporter light, replicate 2 = 3.86e5; Renilla control light, replicate 1 = 8.10e5; Renilla control light, replicate 2 = 8.67e5; inactive.
For dl #1, the entry reads firefly reporter light, replicate 1 = 2.22e5; firefly reporter light, replicate 2 = 1.85e5; Renilla control light, replicate 1 = 2.11e6; Renilla control light, replicate 2 = 2.33e6; inactive.
For dl #2, the entry reads firefly reporter light, replicate 1 = 3.81e5; firefly reporter light, replicate 2 = 3.72e5; Renilla control light, replicate 1 = 1.04e6; Renilla control light, replicate 2 = 9.47e5; inactive.
With knock-down of CG31050 the results were firefly reporter light, replicate 1 = 90441; firefly reporter light, replicate 2 = 83677; Renilla control light, replicate 1 = 1.16e5; Renilla control light, replicate 2 = 1.17e5; inactive.
Against CG11537, the values are firefly reporter light, replicate 1 = 9.44e5; firefly reporter light, replicate 2 = 1.15e6; Renilla control light, replicate 1 = 1.55e6; Renilla control light, replicate 2 = 1.34e6; inactive.
Against CG3328 #1, the entry reads firefly reporter light, replicate 1 = 4.88e5; firefly reporter light, replicate 2 = 3.58e5; Renilla control light, replicate 1 = 1.35e6; Renilla control light, replicate 2 = 1.35e6; inactive.
Against CG3328 #2 the deposit lists firefly reporter light, replicate 1 = 2.91e5; firefly reporter light, replicate 2 = 3.27e5; Renilla control light, replicate 1 = 7.98e5; Renilla control light, replicate 2 = 8.64e5; inactive.
Knock-down of CG34236 resulted in: firefly reporter light, replicate 1 = 9.90e5; firefly reporter light, replicate 2 = 1.00e6; Renilla control light, replicate 1 = 2.67e6; Renilla control light, replicate 2 = 2.84e6; inactive.
CG14913 #1 gave firefly reporter light, replicate 1 = 1.52e5; firefly reporter light, replicate 2 = 2.02e5; Renilla control light, replicate 1 = 1.39e6; Renilla control light, replicate 2 = 1.60e6; inactive.
After knock-down of CG14913 #2, the record shows firefly reporter light, replicate 1 = 8.75e5; firefly reporter light, replicate 2 = 6.50e5; Renilla control light, replicate 1 = 1.87e6; Renilla control light, replicate 2 = 1.36e6; inactive.

Reformatted: results already given.
| Target gene | reagent | firefly reporter light, replicate 1 | firefly reporter light, replicate 2 | Renilla control light, replicate 1 | Renilla control light, replicate 2 | outcome |
| --- | --- | --- | --- | --- | --- | --- |
| CG3328 | 1 | 4.88e5 | 3.58e5 | 1.35e6 | 1.35e6 | inactive |
| CG3328 | 2 | 2.91e5 | 3.27e5 | 7.98e5 | 8.64e5 | inactive |
| CG34236 | 1 | 9.90e5 | 1.00e6 | 2.67e6 | 2.84e6 | inactive |
